From PubChem BioAssay AID1347076 (National Center for Advancing Translational Sciences (NCATS), 2019)
Screen size: about 400,000 compounds; about 13,000 (3.2%) were called active. Inconclusive results, whose numbers are uncertain, are shown with a selection of clear calls. The call rests on the fitted dose curve; in most records, active means well fitted cell-killing curve with a large enough effect; inconclusive means small, poorly fitted or top-dose-only effect, or effect the other way; inactive means flat fitted curve, though single readings scatter. Potencies beside an inconclusive call are fits to weak or partial responses and may not hold up.

Experiment: qHTS assay for MDR1-selective chemotherapeutics: Primary screen using the drug-selected MDR subline cells KB-V1; further: nearly all actives have a fitted effect of over 60% in size
Conditions: KB-V1 MDR cells viability, CellTiter-Glo, 72 h; activity change, negative = cytotoxicity: at 46.1 µM (top of the series)
How it was run: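 KB-V1 MDR subline cells in DMEM (phenol-red free, 10% FBS) exposed to compounds in qHTS concentration series for 72 h at 37 degrees C. Viability read by CellTiter-Glo luminescence; concentration-effect curves fitted after normalization and correction.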
On the % scale 0 is the no-effect control and ±100 the full control effect; potency means the concentration at half of the fitted maximal effect.

Row | Compound | Potency | activity change, negative = cytotoxicity
1 | C=CCc1cccc2cc(C(=O)NC)c(=O)oc12 | inconclusive: 29.1 µM [rising, single point] | 
2 | Cc1ccc(C)c(N2CCN(C(=O)CCc3nc(-c4ccccc4F)no3)CC2)c1 | inactive | 
3 | O=C(CC1S/C(=N/N=C/C=C/c2ccccc2)NC1=O)Nc1ccc(Cl)c(Cl)c1 (centres undefined) | inactive | 
4 | Cc1ccc(-c2noc(=O)n2CC(=O)Nc2ccc(S(=O)(=O)NC3CC3)cc2)cc1 | inactive | 
5 | CC1CN(CC(=O)NCc2ccc(F)cc2)CC(C)O1 (centres undefined) | inactive | 
6 | Cc1cccc(-n2nnnc2SCC(=O)c2cc(C)n(CC3CCCO3)c2C)c1 (centres undefined) | inconclusive: 23.1 µM [cytotoxic, single point] | 
7 | CC(C)OC(=O)CSc1nc(N)c(C#N)c(-c2cccs2)c1C#N | active: 20.6 µM | 
8 | Cc1ccc(-c2sc(-c3ccccc3)nc2CC(=O)Nc2ccccc2F)cc1 | inconclusive: 20.6 µM [cytotoxic, partial curve] | 
9 | CCN(CC)c1cc(C)c2ccccc2n1 | inactive | 
10 | CC(=O)N1c2ccc(S(=O)(=O)NCCC(=O)NCCc3cccc(C)c3)cc2CC1C (centres undefined) | inactive | 
11 | Cn1nc(-c2ccc(Cl)cc2)c2cc(C(=O)N3CCCC3)sc21 | inactive | 
12 | COc1ccc(-c2csc3nc(-c4ccccc4C)oc(=O)c23)cc1OC | inactive | 
13 | Nc1c(Cl)cc(C=O)cc1Cl | inconclusive: 29.1 µM [rising, single point] | 
14 | C/C(CC(=O)Nc1ccc(F)cc1)=N\NC(=O)COc1ccccc1 | inconclusive: 6.51 µM [rising, partial curve, poor fit] | 
15 | CCC[C@@H](CN1CCC[C@H]1CN1C(N)=NC[C@H]1C(C)C)N1C[C@@H](Cc2ccccc2)N(CCCC2CCCC2)C1=N | inactive | 
16 | COc1cccc(CCN2C(=O)C(=O)N([C@@H](CNCc3ccccc3)Cc3ccccc3F)C[C@@H]2C(C)(C)C)c1 | inactive | 
17 | COc1ccc(/C=N/n2cnc3c([nH]c4ccc(F)cc43)c2=O)cc1CN1CCCC1 | inconclusive: 29.1 µM [cytotoxic, single point] | 
18 | Cc1ccc(NC(=O)Nc2ccnc(-c3cccnc3)n2)cc1 | inconclusive: 9.2 µM [cytotoxic, partial curve] | 
19 | COC(=O)c1sccc1NC(=O)Nc1cccc(C(C)=O)c1 | inconclusive: 29.1 µM [rising, single point] | 
20 | Cn1cc([N+](=O)[O-])c(C(=O)Nc2cc(Oc3ccccc3)cc([N+](=O)[O-])c2)n1 | inconclusive: 25.9 µM [cytotoxic, partial curve, poor fit] | 
21 | O=C1Nc2ccccc2N(O)N1c1cc(-c2ccc(Cl)cc2)[nH]n1 | inconclusive: 3.66 µM [rising, full curve, poor fit] | 
22 | CCc1ccccc1N(CC(=O)NCCc1ccccc1)C(=O)CCC(=O)Nc1ccccn1 | inconclusive: 3.66 µM [cytotoxic, full curve] | 
23 | O=C(Nc1ccccc1C(=O)NCc1ccccc1)c1ccccc1 | inconclusive: 14.6 µM [cytotoxic, partial curve, poor fit] | 
24 | Cc1cccc(N(CC(=O)NCc2ccco2)S(=O)(=O)c2ccccc2)c1 | inconclusive: 16.4 µM [cytotoxic, single point] | 
25 | CNC(=S)N1CCN(c2nc(-c3ccc(F)cc3)cs2)CC1 | inactive | 

Entries of single compounds as entered above.
C/C(CC(=O)Nc1ccc(F)cc1)=N\NC(=O)COc1ccccc1 in the list: Potency: inconclusive: 6.51 µM [rising, partial curve, poor fit]
CNC(=S)N1CCN(c2nc(-c3ccc(F)cc3)cs2)CC1 in the list: Potency: inactive

(more compounds)

Row | Compound | Potency | activity change, negative = cytotoxicity
26 | COc1ccc(C(=O)N[C@H](C(=O)OCCCOC(=O)[C@@H](NC(=O)c2ccc(OC)cc2)C(C)C)C(C)C)cc1 | inactive | 
27 | COc1ccccc1NC(=O)c1ccc(COc2ccccc2OC)o1 | inactive | 
28 | CN1C(=O)CSC1=Nc1ccc(Br)cc1 | inconclusive: 29.1 µM [cytotoxic, single point] | 
29 | CC(C(=O)N1CCN(C=O)CC1)N1C(=O)c2ccccc2C1=O (centres undefined) | inconclusive: 23.1 µM [rising, partial curve] | 
30 | Cc1ccccc1-c1nc(-c2ccc(Br)o2)no1 | inactive | 
31 | Cc1nc([N+](=O)[O-])c(Br)n1Cc1ccc(Cl)c(Cl)c1 | inconclusive: 29.1 µM [cytotoxic, single point] | 
32 | COc1ccc(OCc2cc(C(=O)N3CCN(C4CCCC4)CC3)no2)c(Cl)c1 | inconclusive: 9.2 µM [cytotoxic, partial curve] | 
33 | CS(=O)(=O)c1ccc(Cl)c(NC(=O)COC(=O)CNC(=O)c2ccc3ccccc3c2)c1 | inactive | 
34 | CCOC(=O)c1sc(NC(=O)c2cc(-c3ccccc3)nc3ccccc23)c(C#N)c1C | inconclusive: 6.51 µM [cytotoxic, partial curve] | 
35 | COc1ccc(-c2ccccc2)cc1NC(=O)[C@@H]1O[C@H](CO)[C@H](O)[C@H](O)[C@H]1O | inactive | 
36 | CC(C)Oc1ccc(C(CC(=O)O)NC(=O)c2cccs2)cc1 (centres undefined) |  | inconclusive: 38.6%
37 | COCCOCCOCCC(=O)NC1CC2CCC1(C)C2(C)C (centres undefined) | inconclusive: 29.1 µM [cytotoxic, partial curve, poor fit] | 
38 | COc1cc(-c2nc(Cn3nnc(C(=O)Nc4ccccc4)c3C)c(C)o2)cc(OC)c1OC | inactive | 
39 | C=CCN1CC(c2nc3ccccc3n2Cc2cccc3ccccc23)CC1=O (centres undefined) | inconclusive: 20.6 µM [cytotoxic, partial curve, poor fit] | 
40 | COc1ccc(C(=O)c2coc(-c3ccccc3C(=O)O)c2C(=O)O)cc1 | inactive | 
41 | Cc1onc(-c2c(Cl)cccc2Cl)c1C(=O)NCc1cccs1 | inconclusive: 18.4 µM [cytotoxic, single point] | 
42 | Cc1c(C)c2c(cc(C)c3c(-c4ccccc4)coc32)oc1=O | inactive | 
43 | Fc1ccc(-n2cc(-c3ccccc3)c3c(NN4CCOCC4)ncnc32)cc1 | active: 7.31 µM | 
44 | C=CCn1c(=O)c2ccccc2n2c(SCc3c(C(=O)OCC)oc4ccccc34)nnc12 | inconclusive: 29.1 µM [cytotoxic, single point] | 
45 | O=C(c1cccc2ccccc12)C1CCCN(C(=O)CCCn2cncn2)C1 (centres undefined) | inconclusive: 16.4 µM [cytotoxic, single point] | 
46 | COc1ccc(Br)cc1CN1CCN(c2ncccn2)CC1 | inconclusive: 29.1 µM [cytotoxic, single point] | 
47 | CN(C)CCN(Cc1ccccc1)S(=O)(=O)c1ccc2[nH]c(=O)ccc2c1 | inactive | 
48 | C(=N\NC(=Nc1ccccc1)c1ccccn1)/c1ccccn1 | active: 16.4 µM | 
49 | Cc1ccccc1-n1nc(C)c2cc(C(=O)N3CCN(S(=O)(=O)c4ccccc4)CC3)sc21 | active: 23.1 µM | 
50 | Cc1cc(Nc2nnnn2-c2ccccc2)n(-c2ccccc2)n1 | inconclusive: 18.4 µM [cytotoxic, partial curve] | 

Row | Compound | Potency | activity change, negative = cytotoxicity
51 | COc1ccc(CNC(=O)[C@H](C)NC(=O)N2CCn3c2nc2ccccc23)cc1 | inactive | 
52 | Cc1ccc2ccccc2c1COC(=O)c1nonc1N | inactive | 
53 | O=C(NC(=S)NCCC1=CCCCC1)c1cccnc1 | inconclusive: 29.1 µM [cytotoxic, single point] | 
54 | Cc1csc(NC(=O)CCCSc2nc3ccccc3s2)n1 | inconclusive: 20.6 µM [cytotoxic, single point] | 
55 | Cc1ccccc1/C=N/Nc1ccnc2cc(Cl)ccc12 | active: 16.4 µM | 
56 | COc1ccc(OCCSc2nnc(C)n2-c2ccccc2)cc1 | inactive | 
57 | COCCCNC(=O)CN(CCc1ccccc1)S(=O)(=O)c1ccc(C)cc1 | inconclusive: 7.31 µM [cytotoxic, partial curve] | 
58 | CCOC(=O)N1CCN(C(=O)c2ccc3c(c2)N(CC)CCS3)CC1 | inactive | 
59 | CC1=C(C(=O)N(C(C)C)C(C)C)CC(CC(=O)NCCCCc2ccccc2)C(=O)N1CCC1=CCCCC1 (centres undefined) | inconclusive: 20.6 µM [cytotoxic, single point] | 
60 | CC1CN(CCCCOc2ccc(C(C)C)cc2)CC(C)O1 (centres undefined) | inconclusive: 32.6 µM [cytotoxic, partial curve, poor fit] | 
61 | O=C(Nc1nc2ccc(S(=O)(=O)N3CCCC3)cc2s1)c1ccccn1 | inactive | 
62 | O=C(CN1C(=O)NC2(CCCCCC2)C1=O)Nc1ccccc1[N+](=O)[O-] | inactive | 
63 | CCN(CC)S(=O)(=O)c1ccc(N2CCOCC2)c(NC(=O)c2cc(=O)[nH]c3ccccc23)c1 | inactive | 
64 | COc1ccc(-c2nc3c4ccccc4n(CC(=O)N4CCN(c5ccccc5OC)CC4)c(=O)n3n2)cc1 | inactive | 
65 | CCO[C@H]1OC(C(=O)N2CCN(C)CC2)=C[C@@H](C2CC2)[C@@H]1CCCO | inactive | 
66 | COc1ccccc1CNC(=O)[C@H](C)NC(=O)C1CCN(C(=O)[C@@H](N)Cc2ccccc2)CC1 | inconclusive: 20.6 µM [rising, single point] | 
67 | CCCc1nc2c(s1)CCc1onc(-c3ccc(OC)cc3)c1-2 | inactive | 
68 | CCOc1ccccc1NC(=O)c1ccc(S(=O)(=O)N(C)c2ccccc2)cc1 | inconclusive: 5.17 µM [cytotoxic, single point] | 
69 | O=C(OCc1ccccc1)N1CCN(C(c2ccnc3ccccc23)c2nnnn2-c2ccc3c(c2)OCCO3)CC1 (centres undefined) | inconclusive: 29.1 µM [cytotoxic, single point] | 
70 | CCOc1ccc(Nc2ccc(S(=O)(=O)N3CCOCC3)cc2[N+](=O)[O-])cc1 | inconclusive: 32.6 µM [cytotoxic, single point] | 
71 | COc1cccc(-n2c(=O)c3c4c(sc3n(Cc3ccc(C)cc3)c2=O)CCCC4)c1 | inactive | 
72 | CC(=O)N(Cc1ccc(F)cc1)c1cccc(C)c1C | inconclusive: 29.1 µM [cytotoxic, single point] | 
73 | COc1cccc(C(=O)NCCNc2nc3cc(C)cc(C)c3cc2C#N)c1 | inconclusive: 11.6 µM [cytotoxic, partial curve] | 
74 | CC(=O)c1ccc(NC(=S)NC(C)c2ccc(Cl)cc2Cl)cc1 (centres undefined) | active: 18.4 µM | 

Look-ups from the entries so far.
Potency with `COc1cccc(C(=O)NCCNc2nc3cc(C)cc(C)c3cc2C#N)c1` reads inconclusive: 11.6 µM [cytotoxic, partial curve]
Potency with `O=C(NC(=S)NCCC1=CCCCC1)c1cccnc1` reads inconclusive: 29.1 µM [cytotoxic, single point]
